According to publication PMC6328563:
No constants are given. Whether binding was seen depends on the method and setting. In cells and extracts the contact can be indirect. Some binding calls cover weakened binding; strength is not graded here.

Protein sequences, listed by entry. Tags and fused reporters are not part of them.
UniProt P31274: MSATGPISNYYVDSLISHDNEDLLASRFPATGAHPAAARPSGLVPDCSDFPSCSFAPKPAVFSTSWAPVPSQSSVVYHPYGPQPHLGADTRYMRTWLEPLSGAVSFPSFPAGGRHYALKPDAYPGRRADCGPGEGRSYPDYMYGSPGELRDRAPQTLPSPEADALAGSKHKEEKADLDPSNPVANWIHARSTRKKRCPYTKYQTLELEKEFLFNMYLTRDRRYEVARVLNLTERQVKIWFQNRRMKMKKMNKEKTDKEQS
UniProt O15054: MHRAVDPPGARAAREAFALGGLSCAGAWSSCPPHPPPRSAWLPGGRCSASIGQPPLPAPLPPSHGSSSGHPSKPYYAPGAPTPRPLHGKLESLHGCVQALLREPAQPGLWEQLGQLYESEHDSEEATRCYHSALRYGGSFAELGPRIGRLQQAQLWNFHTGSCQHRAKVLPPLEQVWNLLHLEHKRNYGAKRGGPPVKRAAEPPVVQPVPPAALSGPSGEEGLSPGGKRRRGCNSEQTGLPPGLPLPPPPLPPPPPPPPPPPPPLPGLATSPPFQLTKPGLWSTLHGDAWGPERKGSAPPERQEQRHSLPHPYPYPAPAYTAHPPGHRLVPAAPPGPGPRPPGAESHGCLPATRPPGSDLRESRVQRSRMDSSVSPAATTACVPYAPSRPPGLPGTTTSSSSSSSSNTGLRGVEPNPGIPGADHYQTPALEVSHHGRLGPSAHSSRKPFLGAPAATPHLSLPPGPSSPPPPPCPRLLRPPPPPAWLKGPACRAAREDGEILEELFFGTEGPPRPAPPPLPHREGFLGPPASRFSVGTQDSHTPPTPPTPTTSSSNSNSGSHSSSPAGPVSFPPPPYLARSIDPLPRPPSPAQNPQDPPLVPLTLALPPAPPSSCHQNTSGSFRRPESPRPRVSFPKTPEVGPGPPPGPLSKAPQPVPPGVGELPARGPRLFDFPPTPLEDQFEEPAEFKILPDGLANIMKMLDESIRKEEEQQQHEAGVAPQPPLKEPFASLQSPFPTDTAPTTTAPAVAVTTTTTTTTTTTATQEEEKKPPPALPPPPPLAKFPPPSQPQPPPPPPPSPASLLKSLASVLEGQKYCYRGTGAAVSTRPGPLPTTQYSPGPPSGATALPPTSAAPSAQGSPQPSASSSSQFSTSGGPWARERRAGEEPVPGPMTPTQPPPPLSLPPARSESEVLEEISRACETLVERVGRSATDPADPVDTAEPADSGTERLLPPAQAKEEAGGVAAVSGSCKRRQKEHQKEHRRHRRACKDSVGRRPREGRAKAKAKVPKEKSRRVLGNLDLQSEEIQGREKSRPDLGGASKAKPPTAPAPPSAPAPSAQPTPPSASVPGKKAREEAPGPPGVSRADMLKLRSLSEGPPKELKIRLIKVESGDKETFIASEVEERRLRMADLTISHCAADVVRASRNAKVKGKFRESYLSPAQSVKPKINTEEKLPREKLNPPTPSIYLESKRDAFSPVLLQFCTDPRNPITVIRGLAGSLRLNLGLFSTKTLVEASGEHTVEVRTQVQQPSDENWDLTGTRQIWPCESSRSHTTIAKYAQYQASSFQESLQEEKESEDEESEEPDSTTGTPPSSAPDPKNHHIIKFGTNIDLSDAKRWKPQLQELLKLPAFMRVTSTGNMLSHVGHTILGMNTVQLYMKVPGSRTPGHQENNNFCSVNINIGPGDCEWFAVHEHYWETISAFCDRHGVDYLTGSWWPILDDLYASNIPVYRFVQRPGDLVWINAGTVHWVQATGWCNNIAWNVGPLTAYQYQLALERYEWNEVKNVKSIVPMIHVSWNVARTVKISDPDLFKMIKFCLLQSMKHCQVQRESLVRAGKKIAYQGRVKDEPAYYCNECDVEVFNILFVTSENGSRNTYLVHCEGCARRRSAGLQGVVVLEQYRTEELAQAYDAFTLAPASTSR

Target: Myc-tagged HOXC9 (UniProt P31274)
Experiment: co-IP; Dynabeads Co-IP kit, detergent lysis, extraction buffer with 150 mM NaCl and 10 µg/ml DNase I; extracts of about 1 x 10^7 BE(2)-C_tetoff-myc-HOXC9 cells (6 days without doxycycline) incubated overnight at 4 °C with Protein G Dynabeads coated with mouse anti-Myc tag (clone 4A6) or mouse IgG; immunoblot with anti-KDM6B and anti-Myc tag

- binding: binds
Substance: KDM6B (from UniProt O15054 1-1643)
